From paper PMC7819943, “Rice protein-binding microarrays: a tool to detect cis-acting elements near promoter regions in rice”
Some of the results follow.

Sequences of proteins named here, by UniProt entry; tags and fusion partners are left off.
UniProt Q0JBA9, entry or part of it: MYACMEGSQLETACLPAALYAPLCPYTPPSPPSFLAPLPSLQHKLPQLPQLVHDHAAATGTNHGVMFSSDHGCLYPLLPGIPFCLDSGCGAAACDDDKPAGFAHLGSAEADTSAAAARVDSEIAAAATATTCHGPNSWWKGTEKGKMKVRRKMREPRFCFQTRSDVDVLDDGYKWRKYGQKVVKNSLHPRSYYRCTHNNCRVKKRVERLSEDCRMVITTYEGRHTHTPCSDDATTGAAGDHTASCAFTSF

molecular target: OsWRKY34 (Oryza sativa, UniProt Q0JBA9 1-250); test: protein-binding microarray (RPBM); PBS, 2% BSA, 51.3 ng/ul salmon testes DNA, 50 uM zinc acetate, 200 nM TF, 25 C, 1 h; high values mean tight binding; details: protein: recombinant; tags: N-terminal polyhistidine and DsRed monomer fusion (pET32a); label: CyDye5-dUTP incorporated in the synthesized complementary strand; 3' TTTTT single-stranded linker to array surface; dsDNA, one strand shown
In short: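 The binding signal is fluorescence intensity per feature, in arbitrary units, read on an Axon 4000B scanner. Polyhistidine- and DsRed-tagged transcription factors (N-terminal fusions) from E. coli BL21-CodonPlus were purified on Ni–NTA and applied at 200 nM for 1 h at 25 °C to a double-stranded, BSA-blocked custom Agilent array in buffer with 50 µM zinc acetate.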

Row | Sequence | binding signal
1 | TGCTACTTTGACTAGAAATATTTATAAATGTAGTATATTTCGGAGTCACCTAGTGCAG | 8570 fluorescence intensity (a.u.)
2 | GCAGCTCCTATCTGGCCAGCTTTTATTTAGCTGTTCTTCTCGGAGTCACCTAGTGCAG | 9040 fluorescence intensity (a.u.)
3 | AATTTTTTTTGGGGTTGCTGCTGTTTTTTTTGTGGAGGTTCGGAGTCACCTAGTGCAG | 9450 fluorescence intensity (a.u.)
4 | TGTTGCATTTTTACTCGTTGGCCGGCACGACTGCCTCTGACGGAGTCACCTAGTGCAG | 9740 fluorescence intensity (a.u.)
5 | TTGTCTCACCACTGCTTCGCATCCTCCGCCGCCGCCTCACCGGAGTCACCTAGTGCAG | 11000 fluorescence intensity (a.u.)
6 | CATGCTGCCAACTCTGCAATTCTGATGTCCATTGCCAATCCGGAGTCACCTAGTGCAG | 9870 fluorescence intensity (a.u.)
7 | TCGACCTGTCGCTCATCGACGGGTTCAACGTGCCGGTGAGCGGAGTCACCTAGTGCAG | 12400 fluorescence intensity (a.u.)
8 | ATGGGGAAATTTTGCAGCTCTTGCTCTTTGTGCCGTAGCTCGGAGTCACCTAGTGCAG | 8100 fluorescence intensity (a.u.)
9 | TAATGGGGCATATTCGTGGGTGTGTAAGTATAACGTTATACGGAGTCACCTAGTGCAG | 9830 fluorescence intensity (a.u.)
10 | GATCGAAACTAGTTAGGGTTGGAAGGGGCATTTTAGTATTCGGAGTCACCTAGTGCAG | 9940 fluorescence intensity (a.u.)
11 | AGGGGCGGATACGTGATTTCTAAGAGGCGAGCTTCTTCTCCGGAGTCACCTAGTGCAG | 8290 fluorescence intensity (a.u.)
12 | TTCCTTGCTGCTCTGCTTTTTCTCCTGCTACGCGTGATCACGGAGTCACCTAGTGCAG | 14400 fluorescence intensity (a.u.)
13 | ATTTCTCATAATGTTCACTGTTACCTCGTCGTATGCAACACGGAGTCACCTAGTGCAG | 9940 fluorescence intensity (a.u.)
14 | AACGTTGGTTAAAAAGTCAACGGCGTCATACATTAACATACGGAGTCACCTAGTGCAG | 11300 fluorescence intensity (a.u.)
15 | GGTTGGGGAAGGGAAGGGAAGGGAGAGGAGAGGGGCTCGCCGGAGTCACCTAGTGCAG | 9900 fluorescence intensity (a.u.)
16 | CTTCGCCTCCGCGCCGCCGCCGCCTCTGTCCGTTCCGCCGCGGAGTCACCTAGTGCAG | 8510 fluorescence intensity (a.u.)
17 | GGGCCTGGACTTGTTCTCCTTGTCGGATTCCAGCCCATATCGGAGTCACCTAGTGCAG | 9260 fluorescence intensity (a.u.)
18 | CTCTCTCTCTCTCTCTCTCTCTATATATATATATATATATCGGAGTCACCTAGTGCAG | 10100 fluorescence intensity (a.u.)
19 | GGACCGAGGGAGTATTTGTTTCTCCAGTGTCTCCGCTCTGCGGAGTCACCTAGTGCAG | 8190 fluorescence intensity (a.u.)
20 | TGGGCTCACTTTTTTTTTCGCCGATTTATAATTATAAAATCGGAGTCACCTAGTGCAG | 9160 fluorescence intensity (a.u.)
21 | AAACCGACTTGGCTTTCGCTACGCCCAGCTTCGGCCGCGCCGGAGTCACCTAGTGCAG | 8200 fluorescence intensity (a.u.)
22 | TTACTATGTTTCACTTTTCTTTACTATTTAAAAAGTTTCTCGGAGTCACCTAGTGCAG | 8360 fluorescence intensity (a.u.)
23 | TTGGATGTTCTTCCCGTTGTTGTGTTTTATCATGTGCCTTCGGAGTCACCTAGTGCAG | 9330 fluorescence intensity (a.u.)
24 | CCCATCTCACCAGTGACGTGCTTCTTCATCATCCCTATATCGGAGTCACCTAGTGCAG | 11600 fluorescence intensity (a.u.)
25 | TGTGAGGCATCATCTTATTCAACTGTGTATTAATTTTTTTCGGAGTCACCTAGTGCAG | 9100 fluorescence intensity (a.u.)
26 | ACTAGCAAAAACCGTTGACTTAGTCTATAGCATTCCTTGTCGGAGTCACCTAGTGCAG | 12600 fluorescence intensity (a.u.)
27 | CCTCTTGTCGCCACGTCCCACGCTACTCCTTTTTAAATGCCGGAGTCACCTAGTGCAG | 12100 fluorescence intensity (a.u.)

Row | Sequence | binding signal
28 | ATGGACGACGCCACGAGCTCGCTCTCACACGCGCCATCAGCGGAGTCACCTAGTGCAG | 9470 fluorescence intensity (a.u.)
29 | TTTCCATTGTGTTCTGGTTGTTGTAAGGTTTTCAAAGAATCGGAGTCACCTAGTGCAG | 9100 fluorescence intensity (a.u.)
30 | TATCATCTACCCCAAAGGTTTGGTTGTTCCTATTTCCTATCGGAGTCACCTAGTGCAG | 13100 fluorescence intensity (a.u.)
31 | CTCTCGTCTCCCGATCCCGCACGCGGCCAGCTACAAATACCGGAGTCACCTAGTGCAG | 8890 fluorescence intensity (a.u.)
32 | GTAGGTGGATATGATAATGAATCTTCTGTCAGTTTTTTTTCGGAGTCACCTAGTGCAG | 10300 fluorescence intensity (a.u.)
33 | TTGACCTTGCTCTTATATAGCAGACCATTTTTCTGCTGCTCGGAGTCACCTAGTGCAG | 9090 fluorescence intensity (a.u.)
34 | TGTCATGCATAACAACCATACTCCTTTATCTTTCTTTTATCGGAGTCACCTAGTGCAG | 9010 fluorescence intensity (a.u.)
35 | AGTATTTTGACTTTGACCAAAGTCAAAACAACTTATAACTCGGAGTCACCTAGTGCAG | 12500 fluorescence intensity (a.u.)
36 | TGCTCTTATTGCTGCTATTATATGGCCATGCTGTTGCTACCGGAGTCACCTAGTGCAG | 9740 fluorescence intensity (a.u.)
37 | GAGGTGGGTGTGGAACTGTGGATGCGGGTCGGGGAGATCGCGGAGTCACCTAGTGCAG | 16900 fluorescence intensity (a.u.)
38 | AGCACAACGACTAACCTCTTGCCTTATCCATCTACTAGTACGGAGTCACCTAGTGCAG | 8890 fluorescence intensity (a.u.)
39 | CCCGATCATCTGTTGGGCCTAATTTGATCTCACTTTTTTTCGGAGTCACCTAGTGCAG | 8230 fluorescence intensity (a.u.)
40 | GCTCGCCATCGCATCATGTACCCTCAATTTCGCTTCGCCACGGAGTCACCTAGTGCAG | 11400 fluorescence intensity (a.u.)
41 | TTTACATCTAATATTTTTTATTTGGGGTTCAGCGGGCATTCGGAGTCACCTAGTGCAG | 11100 fluorescence intensity (a.u.)
42 | TTTTTCTCAACTAAACTGTCCCATTGTGTTGTGCGTTCTCCGGAGTCACCTAGTGCAG | 11600 fluorescence intensity (a.u.)
43 | CGAGTTCCTCGTGCGCCAATTATACTATACCTCTACATATCGGAGTCACCTAGTGCAG | 8800 fluorescence intensity (a.u.)
44 | GTCTTTTTGTTGGTTGGTTTTTATTAACGATGGTTTGGTTCGGAGTCACCTAGTGCAG | 9920 fluorescence intensity (a.u.)
45 | TCTCTTTCTATAATATATCAACGACTTTATCAATTGTTCTCGGAGTCACCTAGTGCAG | 8620 fluorescence intensity (a.u.)
46 | CTCGTCGACACCTGCGGCCTCACCGCCGCCCAGGCGCTCACGGAGTCACCTAGTGCAG | 8430 fluorescence intensity (a.u.)
47 | CCATTCCCACTATTATCATCGATTGATACATAGAGCATGCCGGAGTCACCTAGTGCAG | 8250 fluorescence intensity (a.u.)
48 | ATCAATCCAAGTTTCATATTATGTTCATGAATCTCTTGTCCGGAGTCACCTAGTGCAG | 8910 fluorescence intensity (a.u.)
49 | CTCGGTCGGCAGGCTTGGTATCAATCTTGGGAGGGGAAAACGGAGTCACCTAGTGCAG | 11200 fluorescence intensity (a.u.)
50 | TTGGCTGTATTATTAAACTTGCTCTTACTACTCCATCCGTCGGAGTCACCTAGTGCAG | 8390 fluorescence intensity (a.u.)
51 | TCCGGGTCTTTCTCAATGCAACATCGTTCCATCGTCAAAACGGAGTCACCTAGTGCAG | 10300 ± 164 fluorescence intensity (a.u.)
52 | TCGTCACATGTCTCATCTCTGCAACCAACTTCTCTTTAGCCGGAGTCACCTAGTGCAG | 9000 fluorescence intensity (a.u.)
53 | CGGAGATCTTCAGAAACGAGTTATTTTTCCTCGCAAAACGCGGAGTCACCTAGTGCAG | 8690 fluorescence intensity (a.u.)
54 | AGGGACACATGTTTTGCTTTTTTCTCAGAATTTTTTGAATCGGAGTCACCTAGTGCAG | 8960 fluorescence intensity (a.u.)

Quoted from the listing.
Value for GATCGAAACTAGTTAGGGTTGGAAGGGGCATTTTAGTATTCGGAGTCACCTAGTGCAG under binding signal: 9940 fluorescence intensity (a.u.)
Value for TTTCCATTGTGTTCTGGTTGTTGTAAGGTTTTCAAAGAATCGGAGTCACCTAGTGCAG under binding signal: 9100 fluorescence intensity (a.u.)
